Results deposited as PubChem BioAssay AID1259308 (NCATS, 2017)
Aim: 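Genes whose loss raises luciferase production in HEK293 cells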 (primary screen). Cells: human HEK293 embryonic kidney cells stably expressing firefly luciferase (HEK-CMV-Luc2-Hygro). Knock-down reagent: single siRNA against human genes, 0.8 pmol siRNA per well. Duration: 72 h. Measured: 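Luciferase light (ONE-Glo) measured on one replicate plate set and viability (CellTiter-Glo) on the other, scaled to a negative control siRNA, with robust z-scores and luciferase per cell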. Reading the numbers: total luciferase, z-score: higher = more reporter protein produced. Hit rule: 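An siRNA counts as active if its total luciferase robust z-score exceeds 3; genes with two or more such siRNAs out of three were retested with fresh siRNAs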. Calls: active = raised luciferase; inactive = no rise.
The whole screen tested about 59,000 reagents; shown is an unselected part. In the full data, about 1,510 (2.6%) are marked active. 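Calls use total luciferase alone and ignore viability, so some active siRNAs may act by altering cell number.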 Unmarked entries are inactive. Reagents against one gene are numbered here. Further read-outs or replicates are left out here. No sequences are given here.

no.	gene	siRNA no.	total luciferase, z-score
1	NIPA1	1	0.679
2	NIPA1	2	1.83
3	NIPA1	3	-0.779
4	NR1D1	1	-0.969
5	NR1D1	2	1.07
6	NR1D1	3	-0.637
7	PPP3R1	1	-0.702
8	PPP3R1	2	-0.822
9	PPP3R1	3	-0.769
10	FKBP7	1	-0.534
11	FKBP7	2	2.98
12	FKBP7	3	0.234
13	ZSWIM8	1	-3.2
14	ZSWIM8	2	0.875
15	ZSWIM8	3	-0.325
16	SPDYE3	1	2.62
17	SPDYE3	2	-1.92
18	SPDYE3	3	0.116
19	PCDHA11	1	0.0867
20	PCDHA11	2	-0.644
21	PCDHA11	3	0.417
22	PAQR4	1	-0.419
23	PAQR4	2	4.78 (active)
24	PAQR4	3	0.81

Look-ups from the list:
Entry for NIPA1 #3 in “total luciferase, z-score”: -0.779
FKBP7 #3, total luciferase, z-score → 0.234
For “total luciferase, z-score”, NR1D1 #3 has -0.637

The listing continues:
no.	gene	siRNA no.	total luciferase, z-score
25	TM4SF19	1	-0.642
26	TM4SF19	2	1.48
27	TM4SF19	3	-0.819
28	DNMT3L	1	-0.204
29	DNMT3L	2	0.221
30	DNMT3L	3	-0.613
31	PIP4K2C	1	0.635
32	PIP4K2C	2	0.629
33	PIP4K2C	3	0.129
34	ZNF567	1	-0.203
35	ZNF567	2	-0.502
36	ZNF567	3	-0.126
37	MTOR	1	-1.33
38	MTOR	2	-1.55
39	MTOR	3	-0.584
